Reference: PMC5996148
The other results are listed elsewhere or left out. For some of these results: Construct or isoform of the protein are uncertain.

Experiments:
Assay in all cases: protein microarray (ProtoArray v5.0), streptavidin-Alexa Fluor 647
Conditions in all cases: 3'-biotin; 20 mM Tris (pH 7.5), 5 mM MgCl2, 100 mM KCl, 0.1% Tween-20, A/T-rich and random oligonucleotide blockers; temperature not stated; high values mean tight binding
ARHGDIA (human) = tested on: ARHGDIA (human)
ARHGDIB (human) = tested on: ARHGDIB (human)
ARHGEF16 (human) = tested on: ARHGEF16 (human)
ARID3B (human) = tested on: ARID3B (human)
ARL1 (human) = tested on: ARL1 (human)
ARL15 = molecular target: T1, ARL15 (UniProt Q9NXU5)
T1 sequence: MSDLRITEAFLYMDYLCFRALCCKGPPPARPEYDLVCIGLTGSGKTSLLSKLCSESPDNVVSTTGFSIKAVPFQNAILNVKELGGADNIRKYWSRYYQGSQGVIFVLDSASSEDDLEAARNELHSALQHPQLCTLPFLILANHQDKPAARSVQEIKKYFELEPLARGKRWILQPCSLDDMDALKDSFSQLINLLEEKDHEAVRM

ARL2 (human) = tested on: ARL2 (human)
ARL3 (human) = tested on: ARL3 (human)
ARL5A (human) = tested on: ARL5A (human)
ARL5B (human) = tested on: ARL5B (human)

GGGAGGCTGAGGCAGG [G4-1 biotinylated (PQS2)]
binding signal (ARHGDIA (human)): -0.331 z-score
binding signal (ARHGDIB (human)): -0.335 z-score
binding signal (ARHGEF16 (human)): -0.308 z-score
binding signal (ARID3B (human)): -0.352 z-score
binding signal (ARL1 (human)): -0.331 z-score
binding signal (ARL15): -0.26 z-score
binding signal (ARL2 (human)): -0.303 z-score
binding signal (ARL3 (human)): -0.335 z-score
binding signal (ARL5A (human)): -0.357 z-score
binding signal (ARL5B (human)): -0.327 z-score
